PubChem BioAssay AID1259308 | NCATS, 2017
In all, the deposit lists about 59,000 reagents; shown is a random part of them. Of all reagents, about 1,510 (2.6%) are marked active. 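Calls use total luciferase alone and ignore viability, so some active siRNAs may act by altering cell number.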 A number with no mark means an inactive call.

- Aim: 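Candidate targets for better recombinant protein yield in mammalian cells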 (primary screen)
- Cell system: human HEK293 embryonic kidney cells stably expressing firefly luciferase (HEK-CMV-Luc2-Hygro)
- Reagent: single siRNA against human genes, 0.8 pmol siRNA per well
- Duration: 72 h
- Read-out: 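Reporter luminescence and viable-cell signal on separate replicate plates, given as percent of non-targeting control and median/MAD z-scores, plus per-cell luciferase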
- Direction: total luciferase, z-score and total luciferase, % of control: higher = more reporter protein produced; luciferase per cell, z-score: higher = more reporter output per viable cell; viable cells, % of control: higher = more viable cells
- Active means: 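An siRNA counts as active if its total luciferase robust z-score exceeds 3; genes with two or more such siRNAs out of three were retested with fresh siRNAs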
- Meaning of the calls: active = raised luciferase; inactive = no rise

target,PubChem SID,"total luciferase, z-score","total luciferase, % of control","luciferase per cell, z-score","viable cells, % of control"
SOX6 (SRY-box transcription factor 6),SID160731514,0.347,88.8,0.274,92.3
SOX6 (SRY-box transcription factor 6),SID160731515,-0.581,70.3,-1.13,106
SOX6 (SRY-box transcription factor 6),SID160743787,-0.468,72.6,0.261,75.7
DSC1 (desmocollin 1),SID160730724,-0.133,79.2,-0.0963,90.8
DSC1 (desmocollin 1),SID160756511,0.45,90.8,0.0415,100
DSC1 (desmocollin 1),SID160756521,-0.281,76.3,-0.129,88.2
RPS6KA4 (ribosomal protein S6 kinase A4),SID160721227,0.614,94.1,0.876,83.5
RPS6KA4 (ribosomal protein S6 kinase A4),SID160721228,0.183,85.5,0.262,89.2
RPS6KA4 (ribosomal protein S6 kinase A4),SID160721230,0.323,88.3,1.12,73.5
NDUFA3 (NADH:ubiquinone oxidoreductase subunit A3),SID160723940,-1.41,53.8,-0.365,66.2
NDUFA3 (NADH:ubiquinone oxidoreductase subunit A3),SID160731271,0.0797,83.5,-0.393,103
NDUFA3 (NADH:ubiquinone oxidoreductase subunit A3),SID160777838,-0.268,76.5,-0.441,96.1
ZSCAN32 (zinc finger and SCAN domain containing 32),SID160742506,0.022,82.3,1.62,60.1
ZSCAN32 (zinc finger and SCAN domain containing 32),SID160742507,0.311,88.1,0.638,83.2
ZSCAN32 (zinc finger and SCAN domain containing 32),SID160742508,-0.398,74,-0.67,98.6
ITGB8 (integrin subunit beta 8),SID160776021,-0.697,68,-0.908,96.6
ITGB8 (integrin subunit beta 8),SID160776022,0.595,93.7,1.14,77.5
ITGB8 (integrin subunit beta 8),SID160776024,-0.954,62.9,-0.417,78.5
RALGPS2-AS1 (RALGPS2 antisense RNA 1),SID160770080,-0.128,79.3,0.107,86.2
RALGPS2-AS1 (RALGPS2 antisense RNA 1),SID160770083,1.47,111,1.92,74.9
RALGPS2-AS1 (RALGPS2 antisense RNA 1),SID160770084,-0.391,74.1,-0.707,99.8
GABRA6 (gamma-aminobutyric acid type A receptor subunit alpha6),SID160768452,0.365,89.1,0.42,89.2
GABRA6 (gamma-aminobutyric acid type A receptor subunit alpha6),SID160768460,-0.609,69.8,-0.777,95.7
GABRA6 (gamma-aminobutyric acid type A receptor subunit alpha6),SID160768470,-0.835,65.3,0.17,69.7
COMMD9 (COMM domain containing 9),SID160733029,-0.828,65.4,-1.43,107
COMMD9 (COMM domain containing 9),SID160739061,1.08,103,2.06,67.1
COMMD9 (COMM domain containing 9),SID160739062,-1.21,57.8,-1.14,87.2
COMMD9 (COMM domain containing 9),SID160766874,2.24,126,1.42,97.2
COMMD9 (COMM domain containing 9),SID160766875,0.237,86.6,0.126,93.6
COMMD9 (COMM domain containing 9),SID160766876,1.35,109,0.229,114
WHAMMP2 (WHAMM pseudogene 2),SID160728009,-1.98,42.4,-0.724,57.4
WHAMMP2 (WHAMM pseudogene 2),SID160728010,-1.2,58,-1.1,86.4
WHAMMP2 (WHAMM pseudogene 2),SID160728011,0.0214,82.3,-0.361,101
ABHD14A (abhydrolase domain containing 14A),SID160737140,4.84 (active),178,3.93,70.8
ABHD14A (abhydrolase domain containing 14A),SID160737141,-0.0968,80,-0.521,102
ABHD14A (abhydrolase domain containing 14A),SID160737142,-0.631,69.3,-0.669,92.4
TACR2 (tachykinin receptor 2),SID160717622,0.773,97.3,0.17,104
TACR2 (tachykinin receptor 2),SID160717624,-0.519,71.6,-1.37,115
TACR2 (tachykinin receptor 2),SID160717625,1.66,115,0.66,108
VSIG2 (V-set and immunoglobulin domain containing 2),SID160736610,0.244,86.7,-0.22,103
VSIG2 (V-set and immunoglobulin domain containing 2),SID160736611,-0.28,76.3,-0.777,105
VSIG2 (V-set and immunoglobulin domain containing 2),SID160736612,-1.05,61,-0.836,84.9
CNOT6 (CCR4-NOT transcription complex subunit 6),SID160746046,0.373,89.3,0.131,96.4
CNOT6 (CCR4-NOT transcription complex subunit 6),SID160746047,-0.558,70.8,-0.507,90.4
CNOT6 (CCR4-NOT transcription complex subunit 6),SID160746048,0.578,93.4,1.13,77.5
RPRD2 (regulation of nuclear pre-mRNA domain containing 2),SID160735828,4.01 (active),162,3.1,79.8
RPRD2 (regulation of nuclear pre-mRNA domain containing 2),SID160735830,-0.705,67.9,0.733,62.5
RPRD2 (regulation of nuclear pre-mRNA domain containing 2),SID160735831,-0.701,67.9,-0.037,76.7
"FGD4 (FYVE, RhoGEF and PH domain containing 4)",SID160755910,2.48,131,1.99,86.8
"FGD4 (FYVE, RhoGEF and PH domain containing 4)",SID160755911,0.312,88.1,0.747,80.9
"FGD4 (FYVE, RhoGEF and PH domain containing 4)",SID160755912,0.245,86.8,0.279,90.1
CNR2 (cannabinoid receptor 2),SID160745545,-0.444,73.1,-0.248,87.1
CNR2 (cannabinoid receptor 2),SID160745556,-1.28,56.4,-1.36,90.2
CNR2 (cannabinoid receptor 2),SID160745567,-0.212,77.7,-0.216,91.9
ZNF80 (zinc finger protein 80),SID160719114,-0.0898,80.1,-0.032,90.3
ZNF80 (zinc finger protein 80),SID160719116,-1.02,61.5,-0.688,82.4
ZNF80 (zinc finger protein 80),SID160719117,-0.275,76.4,-0.215,90.3
GMFG (glia maturation factor gamma),SID160722444,-0.355,74.8,-0.612,98.2
GMFG (glia maturation factor gamma),SID160722445,1.06,103,1.86,70.5
GMFG (glia maturation factor gamma),SID160722446,-1.5,52.1,-1.63,89.4
PFN1 (profilin 1),SID160714182,-1.34,55.3,-1.04,81.4
PFN1 (profilin 1),SID160714183,0.729,96.4,1.37,75.1
PFN1 (profilin 1),SID160714184,-0.417,73.6,0.703,68.3
BCKDK (branched chain keto acid dehydrogenase kinase),SID160728105,1.12,104,3.42,47.3
BCKDK (branched chain keto acid dehydrogenase kinase),SID160728106,-0.293,76.1,-0.444,95.5
BCKDK (branched chain keto acid dehydrogenase kinase),SID160728107,-1.35,55.1,-0.00903,61.7
MMP21 (matrix metallopeptidase 21),SID160755677,0.234,86.5,0.0581,95.2
MMP21 (matrix metallopeptidase 21),SID160755678,-0.702,67.9,-1.02,99.3
MMP21 (matrix metallopeptidase 21),SID160755679,0.508,92,0.416,92.1
KCTD10 (potassium channel tetramerization domain containing 10),SID160751508,1.93,120,1.61,87.9
KCTD10 (potassium channel tetramerization domain containing 10),SID160751509,-0.276,76.4,-0.312,92.7
KCTD10 (potassium channel tetramerization domain containing 10),SID160751510,0.0315,82.5,1.79,57.5
KRTAP13-2 (keratin associated protein 13-2),SID160763982,0.345,88.7,0.0128,98.8
KRTAP13-2 (keratin associated protein 13-2),SID160763983,0.532,92.5,0.159,99.1
KRTAP13-2 (keratin associated protein 13-2),SID160763984,-0.0446,81,0.142,87.2

Records above whose target name starts with S or s (3):
target,PubChem SID,"total luciferase, z-score","total luciferase, % of control","luciferase per cell, z-score","viable cells, % of control"
SOX6 (SRY-box transcription factor 6),SID160731514,0.347,88.8,0.274,92.3
SOX6 (SRY-box transcription factor 6),SID160731515,-0.581,70.3,-1.13,106
SOX6 (SRY-box transcription factor 6),SID160743787,-0.468,72.6,0.261,75.7
